From article PMC6026185 (Scientific Reports, 2018)

What was measured:
[1] = target: T1, hNKCC1A (Homo sapiens, UniProt P55011); assay: 86Rb+ uptake in hNKCC1A-expressing Xenopus laevis oocytes; type: cell-based
T1 construct: Full-length NKCC1 (NKCC1A) comprises ~1200 amino acids; expressed in transfected cells; host or cells: Xenopus laevis oocytes injected with cRNA (pXOOM vector)
T1 sequence (P55011 1-1212): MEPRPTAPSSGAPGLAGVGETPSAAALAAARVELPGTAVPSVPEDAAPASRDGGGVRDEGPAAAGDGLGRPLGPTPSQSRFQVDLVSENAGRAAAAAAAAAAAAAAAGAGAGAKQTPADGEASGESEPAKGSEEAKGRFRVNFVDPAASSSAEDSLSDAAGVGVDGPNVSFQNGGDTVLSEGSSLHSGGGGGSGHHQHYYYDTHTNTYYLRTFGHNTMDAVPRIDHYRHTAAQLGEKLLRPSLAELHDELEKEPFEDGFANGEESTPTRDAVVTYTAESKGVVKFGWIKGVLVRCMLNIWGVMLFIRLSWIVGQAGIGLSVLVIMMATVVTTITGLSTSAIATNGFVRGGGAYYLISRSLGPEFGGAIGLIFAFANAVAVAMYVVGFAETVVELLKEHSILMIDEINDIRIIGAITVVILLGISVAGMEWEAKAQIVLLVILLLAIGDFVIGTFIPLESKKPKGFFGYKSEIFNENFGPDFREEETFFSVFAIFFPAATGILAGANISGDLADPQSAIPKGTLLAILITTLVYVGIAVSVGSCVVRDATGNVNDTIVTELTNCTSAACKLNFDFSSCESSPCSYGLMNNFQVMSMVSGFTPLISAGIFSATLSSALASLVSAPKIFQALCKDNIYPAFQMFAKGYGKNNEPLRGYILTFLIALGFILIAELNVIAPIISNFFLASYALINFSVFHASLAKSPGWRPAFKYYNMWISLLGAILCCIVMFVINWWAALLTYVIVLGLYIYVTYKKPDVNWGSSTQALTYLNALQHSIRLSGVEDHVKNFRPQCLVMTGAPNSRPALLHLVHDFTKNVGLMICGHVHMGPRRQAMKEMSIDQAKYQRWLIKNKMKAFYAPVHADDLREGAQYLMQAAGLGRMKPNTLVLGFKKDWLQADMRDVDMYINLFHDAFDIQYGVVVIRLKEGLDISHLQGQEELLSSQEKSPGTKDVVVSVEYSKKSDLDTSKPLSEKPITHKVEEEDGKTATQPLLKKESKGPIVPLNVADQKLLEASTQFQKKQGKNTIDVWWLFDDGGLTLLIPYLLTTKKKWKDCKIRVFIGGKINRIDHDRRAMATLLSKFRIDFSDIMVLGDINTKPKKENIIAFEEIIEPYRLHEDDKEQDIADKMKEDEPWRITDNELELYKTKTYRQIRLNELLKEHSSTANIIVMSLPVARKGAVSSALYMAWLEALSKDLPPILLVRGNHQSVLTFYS

[2] = target: T2, hNKCC1B (Homo sapiens, UniProt P55011); assay: 86Rb+ uptake in hNKCC1B-expressing Xenopus laevis oocytes; type: cell-based; details: 5 min, corrected for uninjected oocytes, median and range of 3–7 experiments
T2 construct: expressed in transfected cells; host or cells: Xenopus laevis oocytes injected with cRNA (pXOOM vector)
T2 sequence (P55011 1-1196 isoform P55011-3): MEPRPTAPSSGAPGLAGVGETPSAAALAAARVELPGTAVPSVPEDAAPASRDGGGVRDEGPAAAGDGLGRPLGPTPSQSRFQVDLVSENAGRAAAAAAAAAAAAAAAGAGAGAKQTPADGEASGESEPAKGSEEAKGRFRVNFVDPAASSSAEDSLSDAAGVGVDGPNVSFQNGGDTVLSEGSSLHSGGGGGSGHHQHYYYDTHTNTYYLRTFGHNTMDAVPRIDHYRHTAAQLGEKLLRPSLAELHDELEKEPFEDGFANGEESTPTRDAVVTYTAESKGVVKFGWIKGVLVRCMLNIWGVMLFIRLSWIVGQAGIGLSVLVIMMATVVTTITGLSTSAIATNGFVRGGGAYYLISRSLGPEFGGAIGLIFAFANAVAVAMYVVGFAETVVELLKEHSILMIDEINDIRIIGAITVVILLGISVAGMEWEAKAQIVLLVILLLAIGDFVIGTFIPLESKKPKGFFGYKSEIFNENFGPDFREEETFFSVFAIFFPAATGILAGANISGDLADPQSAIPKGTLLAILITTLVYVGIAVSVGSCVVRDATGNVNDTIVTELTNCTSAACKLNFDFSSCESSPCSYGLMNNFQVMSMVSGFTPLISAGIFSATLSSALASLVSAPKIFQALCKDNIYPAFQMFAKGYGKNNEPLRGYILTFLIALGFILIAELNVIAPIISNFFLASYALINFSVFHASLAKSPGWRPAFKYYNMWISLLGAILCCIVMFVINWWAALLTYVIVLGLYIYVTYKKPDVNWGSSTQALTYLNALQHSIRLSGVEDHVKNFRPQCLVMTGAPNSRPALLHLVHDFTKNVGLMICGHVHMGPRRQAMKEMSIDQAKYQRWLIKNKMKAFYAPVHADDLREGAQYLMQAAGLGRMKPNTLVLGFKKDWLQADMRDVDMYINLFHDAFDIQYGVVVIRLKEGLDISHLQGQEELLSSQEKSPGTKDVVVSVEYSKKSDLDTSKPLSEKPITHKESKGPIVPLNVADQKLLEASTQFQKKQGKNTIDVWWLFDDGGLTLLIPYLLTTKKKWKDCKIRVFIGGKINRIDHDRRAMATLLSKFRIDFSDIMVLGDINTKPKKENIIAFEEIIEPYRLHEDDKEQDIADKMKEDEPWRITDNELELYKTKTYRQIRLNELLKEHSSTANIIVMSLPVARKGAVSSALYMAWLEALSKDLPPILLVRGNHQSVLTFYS
Experimental: Human NKCC1A (NM_001046, obtained from Prof. […] To obtain the cDNA encoding NKCC1B, two rounds of PCR (each deleting 24 base pairs from the sequence) was carried out with the following primer sets: […] The entire sequence of the final construct was verified against hNKCC1B (NM_001256461). […] To measure K^+ influx, oocytes were exposed to an isosmotic test solution in which KCl (5 mM) replaced choline chloride, and 2 μCi/mL ^86Rb^+ (NEZ072, PerkinElmer, Rodgau, Germany) were included as a tracer for K^+. Osmolarities of the test media were verified by using an osmometer (Type 15, Löser; Berlin, Germany). […] Median rather than mean values were used because oocyte data on ^86Rb^+ uptake measurements were not normally distributed. […] Significance of differences in transport activity of hNKCC1A or hNKCC1B expressing oocytes vs. uninjected oocytes were analyzed by the Kruskal-Wallis test followed by Dunn's multiple comparisons test. […] A P < 0.05 was considered significant.

[3] = test system: hNKCC2 isoform F; details: Xenopus oocytes; ref Gillen et al.[55]; Carota et al.[56]; read-out: IC50 (µM) NKCC2 (hF); cited from earlier work

NS(=O)(=O)c1cc(C(=O)O)c(NCc2ccco2)cc1Cl [Furosemide]
IC50 ([1]; 86Rb+ uptake, Xenopus oocytes, 5 min, corrected for uninjected oocytes, median and range of 3–7 experiments): 5.15 µM | Ratio hNKCC1A/ hNKCC1B ([1]; ratio of IC50s): 0.885 | IC50 [2]: 5.82 µM | IC50 [3]: 10.6 µM
